Results reported in patent US12049519B2, “Peptide for the delivery of anionic materials” (The Queen's University of Belfast, priority 2019, dated 2024).
“Also recorded” adds a separate entry of the source. Not every detail of the peptide structures is certain; ends, links or a residue may be inferred. Some of these results come from one statement about several compounds together. Residues, ends and D or L forms follow the SMILES beside them.

Assays:
[1] = system: HMEC-1 endothelial cells; assay: Transfection with Peptide 10/pEGFP-N1 nanoparticles, flow cytometry; type: cell-based; details: N:P ratios of 6 to 20
[2] = system: DU145 prostate cancer cells; assay: as above; type: cell-based; details: N:P ratios of 6 to 20
[3] = system: MCF-7 breast cancer cells; assay: Transfection with peptide/pEGFP-N1 nanoparticles, flow cytometry; type: cell-based; details: N:P ratios of 6 to 20, 4 h transfection, 48 h
Method: (§1) FIG. 5: Transfection efficiency of nanoparticles comprising pEGFP-N1 and A) Peptide 7, B) Peptide 8, C) Peptide 9, D) Peptide 10, E) Peptide 11 and F) Peptide 12 assessed in MCF-7 and
(§2) MDA-MB-231 breast cancer cells. Cells were transfected for 4 h with peptide/pEGFP-N1 nanoparticles at a range of N:P ratios. Following transfection, medium was replaced with DMEM supplemented with 10% FCS and incubated for 48 h before quantification of transfection efficiency by flow cytometry at 4% gating.
(§3) In order to assess the ability of peptide and composite nanoparticles to transfect cells, transfections were carried out in 96-well tissue culture plates.
(§4) MCF-7 and MDA-MB-231 breast cancer cells were seeded at a density of 2.25×10^4 and 2.5×10^4 cells per well respectively, and allowed to adhere overnight at 37° C. with 5% CO2 (FIG. 5).
(§5) Medium was replaced with OptiMEM (Invitrogen, UK) 2 h prior to transfection and the cells returned to the incubator at 37° C. with 5% CO2. […]
(§6) Transfected cells were washed with phosphate buffered saline (PBS) and 2× trypsin used to detach cells at 37° C. in 5% CO2 atmosphere. […] A FACScalibur system (BD Bioscience, UK) or Accuri C6 Plus (BD Bioscience, UK) were used for the detection of green fluorescent protein (GFP) expressing cells at 4% gating (to reduce interference of auto-fluorescence) and results are reported as mean±SEM, n=3.

[4] = system: MDA-MB-231 breast cancer cells; assay: as above; type: cell-based; details: N:P ratios of 6 to 20, 4 h transfection, 48 h
Method: as §1, §2, §3, §4, §5, §6

[5] = system: MCF-7 breast cancer cells; assay: Endosomal escape study: transfection with and without chloroquine; type: cell-based; details: N:P 10, 10 μM chloroquine
Method: FIG. 6: Transfection efficiency of nanoparticles comprising pEGFP-N1 and Peptides 7 to 12 assessed in A) MCF-7 and B) MDA-MB-231 breast cancer cells with and without chloroquine, a reagent known to facilitate endosomal escape. Cells were transfected for 4 h with peptide/pEGFP-N1 nanoparticles at N:P 10. 10 μM chloroquine was added to cells in appropriate wells along with the nanoparticles. Following transfection, medium was replaced with DMEM supplemented with 10% FCS and incubated for 48 h before quantification of transfection efficiency by flow cytometry at 4% gating. […] Statistical analysis was carried out using an unpaired t test (*=P<0.05, ** =P<0.01, ***=P<0.001)
In some instances, cells were treated with chloroquine (a reagent known to facilitate endosomal escape) (FIG. 6). For endosomal escape studies, 1 mM chloroquine (Sigma-Aldrich, UK) was added to the cells immediately before transfection, giving a final concentration of 10 μM chloroquine in the nanoparticle transfection mix.

[6] = Nanoparticle hydrodynamic size, Malvern Zetasizer (DLS); type: physicochemical; details: N:P ratio of 6 to 20; pEGFP-N1 nanoparticles
Method: FIG. 3: Mean hydrodynamic size and zeta potential of nanoparticles prepared with pEGFP-N1 and A) Peptide 7, B) Peptide 8, C) Peptide 9, D) Peptide 10, E) Peptide 11 or F) Peptide 12 at a range of N:P ratios. For example, at an N:P ratio of 10 with Peptide 7, nanoparticles comprise 0.5 μg of pEGFP-N1 and 5.7 μg Peptide 7. Nanoparticles were made up to 50 μl with molecular grade water and incubated for 30 min at room temperature before hydrodynamic size and zeta potential were measured using a Malvern Zetasizer Nano ZS instrument.
Peptide complexes (an N:P ratio of 0) and composite complexes were prepared at a range of N:P ratios from 1 to 20 to complex 0.5 μg pEGFP-N1. For example, at an N:P ratio of 10 with Peptide 7, nanoparticles comprise 0.5 μg of pEGFP-N1 and 5.7 μg Peptide 7. Nanoparticles were made up to 50 μl with molecular grade water and incubated for 30 min at room temperature before a Malvern Zetasizer Nano ZS instrument with DTS software (Malvern Instruments, UK) was used to measure the mean hydrodynamic particle size of nanoparticles. A 40 μl disposable microcuvette was used to measure the mean size by number of nanoparticles formed by Dynamic Light Scattering (DLS) at 20° C. Results were reported as mean±SEM, and all measurements were performed in triplicate.

[7] = system: NCTC-929 fibroblast cells; assay: Transfection with Peptide 10/pEGFP-N1 nanoparticles, flow cytometry; type: cell-based; details: N:P ratios of 6 to 20
[8] = system: HaCaT keratinocyte cells; assay: as above; type: cell-based; details: N:P ratios of 6 to 20
[9] = system: PC-3 prostate cancer cells; assay: as above; type: cell-based; details: N:P ratios of 6 to 20
[10] = system: ARPE human retinal cells; assay: as above; type: cell-based; details: N:P ratios of 8 to 12
[11] = system: pEGFP-N1; assay: DNA complexation efficiency assay, Quant-iT PicoGreen; type: binding; details: 0.5 μg pEGFP-N1
Method: FIG. 2: DNA complexation efficiency assay using Quant-iT™ PicoGreen® reagent indicating the efficiency of A) Peptide 7, B) Peptide 8, C) Peptide 9, D) Peptide 10, E) Peptide 11 and F) Peptide 12 to complex 0.5 μg pEGFP-N1 (Accession Number: U55762.1) (a pDNA) at a range of N:P ratios. Peptide/pEGFP-N1 complexes were prepared at a range of N:P ratios from 1 to 20. 50 μl samples of each N:P ratio was pipetted into a 96-well plate with Quant-iT™ PicoGreen® reagent. Sample fluorescence was then analysed by excitation at 480 nm and the fluorescence emission intensity measured at 520 nm using a Synergy 2 Multi-Mode Microplate Reader. Fluorescence was then calculated as a percentage of the control and converted to the percentage DNA complexed.
Peptide complexes and composite complexes were prepared at a range of N:P ratios from 1 to 20 to complex 0.5 μg pEGFP-N1. Quant-iT™ PicoGreen® Reagent (Life Technologies, UK) was diluted 1:200 in TAE buffer and 50 μl was added to each 50 μl sample. Sample fluorescence was analysed by excitation at 480 nm and the fluorescence emission intensity measured at 520 nm using a Synergy 2 Multi-Mode Plate Reader. Fluorescence intensity of a naked pDNA control (an N:P ratio of 0) was taken as 100% fluorescence and 0% complexed, and any fluorescence detected from samples was taken to be un-complexed. The percentage of un-complexed pDNA in each sample was then used to calculate the percentage of complexed pDNA.

[12] = system: mice bearing 4T1 breast cancer tumours; assay: Intra-tumoural delivery of Peptide 10/pLuc, bioluminescent imaging; type: in vivo; details: N:P 8, 20 μg pLuc, lyophilised and reconstituted, 24 h
[13] = system: MDA-MB-231 breast cancer cells; assay: Confocal microscopy of intracellular delivery of Cy3 labelled pDNA; type: cell-based; details: N:P 12; 4 h post-transfection; orthogonal sectioning

Molecule: N=C(N)NCCC[C@H](NC(=O)[C@H](CCCNC(=N)N)NC(=O)[C@H](CCCNC(=N)N)NC(=O)[C@H](Cc1c[nH]c2ccccc12)NC(=O)[C@H](CCCNC(=N)N)NC(=O)[C@H](CCCNC(=N)N)NC(=O)[C@H](CCCNC(=N)N)NC(=O)[C@H](Cc1c[nH]cn1)NC(=O)[C@H](Cc1c[nH]cn1)NC(=O)[C@H](Cc1c[nH]cn1)NC(=O)[C@@H](N)CS)C(=O)N[C@@H](Cc1c[nH]cn1)C(=O)N[C@@H](Cc1c[nH]cn1)C(=O)N[C@@H](Cc1c[nH]cn1)C(=O)N[C@@H](CS)C(=O)O [Peptide 10, CHHHRRRWRRRHHHC] (H-CHHHRRRWRRRHHHC-OH)
- % transfection [1]: > 10%
- % transfection [2]: > 10%
- % transfection [3]: > 15%
- % transfection [4]: > 15%
- change in % transfection in the presence of chloroquine [5]: smaller increase; also recorded: no difference
- hydrodynamic size [6]: < 150 nm
- % transfection [7]: > 10%
- % transfection [8]: > 10%
- % transfection [9]: > 10%
- % transfection [10]: > 10%
- % encapsulation ([11]; N:P ratio of 4 to 20): > 70%
- local delivery of pDNA into tumours (bioluminescence) [12]: could be used to deliver pDNA locally into accessible tumours
- intracellular location of Cy3 labelled pDNA [13]: nuclear delivery; also recorded: intra-nuclear DNA was detected

Molecule: CEHHRRRWRRRHHEC [Peptide 12, comparative linear peptide, outside the scope of the invention]
- change in % transfection in the presence of chloroquine [5]: smaller increase

Molecule: CRRRRWRRRRC [Peptide 11, comparative linear peptide, outside the scope of the invention]
- change in % transfection in the presence of chloroquine [5]: smaller increase
- % encapsulation ([11]; N:P ratio of 6 to 20): > 70%

Molecule: CRRRWHHHHHWRRRC [Peptide 7, comparative linear peptide, outside the scope of the invention]
- % encapsulation ([11]; N:P ratio of 6 to 20): > 70%

Molecule: CWRRRHHHHHRRRWC [Peptide 8, comparative linear peptide, outside the scope of the invention]
- % encapsulation ([11]; N:P ratio of 6 to 20): > 70%
